Experimental data as given in patent US9439876B2, “Method of treating microbial infections” (priority 2014, dated 2016).

Test system: Candida albicans wild type strain SN250
Experiment: Screen for inhibition of Candida albicans lawn formation (halo) on solid serum (FBS agar) plates
Assay type: cell-based
Conditions: 5 μl of 10 mM drug on fungal lawn, 25° C. and 37° C.
Procedure: C. albicans was plated on solid YPD and serum plates, and 5 μl of each 10 mM drug was placed on top of the fungal lawn. The effect of exposure to each of the compounds from the library was assayed for its ability to inhibit C. albicans growth, as well as ability to form a halo within the fungal lawn. […] (FIG. 1A).
Media and Growth Conditions: C. albicans strains were cultured with 5 ml of YPD (1% yeast extract, 2% peptone, 2% dextrose, pH 6) medium at 30° C. overnight. Bacterial cells were cultured in LB (Luria-Bertani) medium consisting of 5 g Bacto-Tryptone, 2.5 g Bacto-Yeast Extract, 5 g NaCl and 7.5 g of 2% agar if preparing solid plates. The centrifuge tubes were incubated at 37° C. and left shaking overnight at 150 rpm. Fetal bovine serum was incorporated into agar. Fetal bovine serum was preheated in a water bath set at 65° C. […] The agar solution for the serum mixture consisted of 16 g agar, which was then brought up to 300 ml with nanopure water. The agar solution was then autoclaved at 120° C. for 45 minutes. The agar and serum mixtures were then amalgamated while in their isothermal states.
High-throughput Screening Assay: The sensitivity of C. albicans against compounds was assessed by a high-throughput chemical screen. 200 μl of C. albicans overnight culture were spread onto petri dishes containing either YPD or fetal bovine serum. […]

SMILES: CC(C)(C)CC(C)(C)c1ccc(OCCOCC[N+](C)(C)Cc2ccccc2)cc1 [Methyl-benzethonium chloride]
- inhibition of C. albicans growth (halo formation) on serum plates: strongest inhibition
